In the supplement of paper PMC4683952:
Where a name gives a salt, the structure may show the parent alone. The list shows a part of the results. Cut-off read from the data, not from the text of the source: active = 2.5 or more and inactive = the rest. This data set is noisy: repeats of one test often differ as much as different tests do.

Each compound was assayed on Lgr5 (MarsCy1-Lgr5-EGFP, U2OS) (assay: cell-surface Lgr5 expression (SCi1 fluorescence, background-subtracted) relative to WT control (fold of WT control); higher = more Lgr5 at the plasma membrane). Conditions: U2OS MarsCy1-Lgr5-EGFP stable; treatment time: overnight; library: Prestwick; 20 µM.

SMILES	cell-surface Lgr5 expression
Cc1cc(CC(=O)O)n(C)c1C(=O)c1ccc(Cl)cc1 [Zomepirac sodium salt]	inactive: 2.05
CO/N=C(\C(=O)N[C@@H]1C(=O)N2C(C(=O)O)=C(COC(N)=O)CS[C@H]12)c1ccco1 [Cefuroxime sodium salt]	inactive: 1.85
O=C(NCC(O)CO)c1c(I)c(C(=O)NCC(O)CO)c(I)c(N(CCO)C(=O)CO)c1I (stereo not drawn) [Ioversol]	inactive: 2.24
Nc1ccc(S(=O)(=O)Nc2ccnn2-c2ccccc2)cc1 [Sulfaphenazole]	inactive: 1.49
CC1Cc2ccccc2N1NC(=O)c1ccc(Cl)c(S(N)(=O)=O)c1 (stereo not drawn) [Indapamide]	inactive: 1.04
O=S(=O)(O)c1cc(O)ccc1O [Ethamsylate]	inactive: 1.15
c1ccc([C@H]2CN3CCSC3=N2)cc1 [Levamisole hydrochloride]	inactive: 1.21
CCC(=O)O[C@]1(C(=O)CCl)[C@@H](C)C[C@H]2[C@@H]3CCC4=CC(=O)C=C[C@]4(C)[C@@]3(F)[C@@H](O)C[C@@]21C [Clobetasol propionate]	active: 2.58
O=C1C[C@@H](c2ccc(O)cc2)Oc2cc(O)cc(O)c21 [Naringenine]	inactive: 0.807
O=C1OCCN1/N=C/c1ccc([N+](=O)[O-])o1 [Furazolidone]	inactive: 1.9
CCOC(=O)Oc1c(OC)cc(C(=O)O[C@@H]2C[C@@H]3CN4CCc5c([nH]c6cc(OC)ccc56)[C@H]4C[C@@H]3[C@H](C(=O)OC)[C@H]2OC)cc1OC [Syrosingopine]	inactive: 2.07
CC[N+]1(C)C2CCC1CC(OC(=O)C1CCC(C(=O)OC3CC4CCC(C3)[N+]4(C)CC)(c3ccccc3)c3ccccc31)C2 (stereo not drawn) [beta- Belladonnine dichloroethylate]	inactive: 1.92
COc1ccc(C2CNC(=O)C2)cc1OC1CCCC1 (stereo not drawn) [Rolipram]	inactive: 1.82
c1ccc2c3c([nH]c2c1)C1C2CCC(C4CCCNC42)N1CC3 (stereo not drawn) [Nitrarine dihydrochloride]	inactive: 1.74
CN1CC[C@]23c4ccccc4N[C@H]1[C@]21CCN(C)[C@H]3Nc2ccccc21 [Calycanthine]	inactive: 2.32
C[C@H]1C[C@@H]2[C@H]([C@@H](O)C[C@@]3(C)[C@H]2CC[C@]3(O)C(=O)CO)[C@@]2(C)C=CC(=O)C=C12 [Methylprednisolone, 6-alpha]	active: 2.92
CCCNCC(O)COc1ccccc1C(=O)CCc1ccccc1 (stereo not drawn) [Propafenone hydrochloride]	inactive: 2
COc1cc([C@@H]2c3cc4c(cc3[C@@H](O[C@@H]3O[C@@H]5CO[C@@H](C)O[C@H]5[C@H](O)[C@H]3O)[C@H]3COC(=O)[C@H]23)OCO4)cc(OC)c1O [Etoposide]	inactive: 0.71
Nc1nc2n[nH]nc2c(=O)[nH]1 [Azaguanine-8]	inactive: 1.23
CN(C)c1nc(N(C)C)nc(N(C)C)n1 [Altretamine]	inactive: 1.82
CC(C)NCC(O)c1ccc2ccccc2c1 (stereo not drawn) [Pronethalol hydrochloride]	inactive: 0.985

SMILES	cell-surface Lgr5 expression
Cc1c(N(C)CS(=O)(=O)O)c(=O)n(-c2ccccc2)n1C [Dipyrone]	active: 3.08
CN(C)[C@@H]1C(O)=C(C(=O)NCN2CCCC2)C(=O)[C@@]2(O)C(O)=C3C(=O)c4c(O)cccc4[C@@](C)(O)[C@H]3C[C@@H]12 [Rolitetracycline]	inactive: 1.82
CC(NCCC(c1ccccc1)c1ccccc1)c1ccccc1 (stereo not drawn) [Fendiline hydrochloride]	inactive: 0.993
CC[C@]12CCCN3CCc4c(n(c5ccccc45)[C@](O)(C(=O)OC)C1)[C@@H]32 [Epivincamine]	active: 2.51
CC(C)NC[C@@H](O)COc1cccc2ccccc12 [(R)-Propranolol hydrochloride]	inactive: 0.785
CC(=O)NC1[C@@H](O)OC(CO)[C@@H](O)[C@H]1O[C@H](C)C(=O)O (stereo in doubt) [Muramic acid, N-acetyl]	inactive: 1.25
CCN(CC)CCc1nc(-c2ccccc2)no1 [Oxalamine citrate salt]	inactive: 0.383
CNCC(O)c1ccc(OC(=O)C(C)(C)C)c(OC(=O)C(C)(C)C)c1 (stereo not drawn) [Dipivefrin hydrochloride]	active: 3.68
CC(C)NCC(O)c1ccc(O)c(O)c1 (single isomer, unassigned; (+)) [(+)-Isoproterenol (+)-bitartrate salt]	inactive: 2.18
CN1CCN(CCCN2c3ccccc3Sc3ccc(Cl)cc32)CC1 [Prochlorperazine dimaleate]	inactive: 0.918
O=c1oc2ccccc2c(O)c1Cc1c(O)c2ccccc2oc1=O [Dicumarol]	active: 2.92
COc1c2occc2c(OC)c2c(=O)cc(C)oc12 [Khellin]	inactive: 1.39
Nc1cc(C(Cl)=C(Cl)Cl)c(S(N)(=O)=O)cc1S(N)(=O)=O [Clorsulon]	inactive: 1.83
C[C@H](CCC(=O)O)[C@H]1CC[C@H]2[C@@H]3[C@H](O)C[C@@H]4C[C@H](O)CC[C@]4(C)[C@H]3CC[C@]12C [Chenodiol]	inactive: 1.33
NNc1nncc2ccccc12 [Hydralazine hydrochloride]	inactive: 0.762
CC(C)(C)NCC(O)COc1cccc2c1CCC(=O)N2 (stereo not drawn) [Carteolol hydrochloride]	inactive: 1.91
C=C1c2c(Cl)ccc(O)c2C(=O)C2=C(O)[C@]3(O)C(=O)C(C(N)=O)=C(O)[C@@H](N(C)C)[C@@H]3[C@@H](O)[C@H]12.O=C(O)c1cc(S(=O)(=O)O)ccc1O [Meclocycline sulfosalicylate]	inactive: 1.07
COc1ccc2c(c1OC)C(=O)O[C@@H]2[C@H]1c2c(cc3c(c2OC)OCO3)CCN1C [Noscapine]	inactive: 1.98
CCOC(=O)O[C@]1(C(=O)COC(=O)CC)CC[C@H]2[C@@H]3CCC4=CC(=O)C=C[C@]4(C)[C@H]3[C@@H](O)C[C@@]21C [Prednicarbate]	inactive: 2.44
C(=C\c1ccccc1)/CN1CCN(C(c2ccccc2)c2ccccc2)CC1 [Cinnarizine]	inactive: -0.0254
O=C(C1CCCCC1)N1CC(=O)N2CCc3ccccc3C2C1 (stereo not drawn) [Praziquantel]	inactive: 0.703

SMILES	cell-surface Lgr5 expression
COc1ccc2c(c1)c(CC(=O)O)c(C)n2C(=O)c1ccc(Cl)cc1 [Indomethacin]	active: 2.55
Nc1nc2ccc(OC(F)(F)F)cc2s1 [Riluzole hydrochloride]	inactive: 0.978
Oc1cc(O)c2c(c1)O[C@H](c1ccc(O)c(O)c1)[C@H](O)C2 [Epicatechin-(-)]	inactive: 2.37
CN(C(=O)C(Cl)Cl)c1ccc(OC(=O)c2ccco2)cc1 [Diloxanide furoate]	inactive: 2.31
Nc1ccn([C@H]2CC[C@@H](CO)O2)c(=O)n1 [Zalcitabine]	inactive: 1.15
CN(C)CCOC(C)(c1ccccc1)c1ccccn1 (stereo not drawn) [Doxylamine succinate]	inactive: 1.22
CC(=O)c1ccc2c(c1)N(CCCN(C)C)c1ccccc1S2 [Acetopromazine maleate salt]	inactive: 2.07
Oc1c(I)cc(Cl)c2cccnc12 [Clioquinol]	inactive: 1.93
CC[C@H](C)[C@H](N)C1=N[C@H](C(=O)N[C@@H](CC(C)C)C(=O)N[C@H](CCC(=O)O)C(=O)N[C@H](C(=O)N[C@H]2CCCCNC(=O)[C@H](CC(N)=O)NC(=O)[C@@H](CC(=O)O)NC(=O)[C@H](Cc3cnc[nH]3)NC(=O)[C@@H](Cc3ccccc3)NC(=O)[C@H]([C@@H](C)CC)NC(=O)[C@@H](CCCN)NC2=O)[C@@H](C)CC)CS1 [Bacitracin]	inactive: 1.37
CN1CCN(CCCN2c3ccccc3Sc3ccc(C(F)(F)F)cc32)CC1 [Trifluoperazine dihydrochloride]	inactive: 1.3
COc1ccc(OC)c(C(O)CNC(=O)CN)c1 (stereo not drawn) [Midodrine hydrochloride]	inactive: 1.37
Oc1ccc(/C=C/c2cc(O)cc(O)c2)cc1 [Resveratrol]	active: 2.6
Cc1c(N(C)C)c(=O)n(-c2ccccc2)n1C [Amidopyrine]	inactive: 1.04
NC[C@@H]1O[C@H](O[C@H]2[C@@H](O)[C@H](O[C@@H]3[C@@H](O)[C@H](N)C[C@H](N)[C@H]3O[C@H]3O[C@H](CO)[C@@H](O)[C@H](O)[C@H]3N)O[C@@H]2CO)[C@H](N)[C@@H](O)[C@@H]1O [Paromomycin sulfate]	inactive: 1.87
COc1ccccc1OCC(O)CO (stereo not drawn) [Guaifenesin]	inactive: 1.85
CC(=O)[C@H]1CC[C@H]2[C@@H]3C=CC4=CC(=O)CC[C@@]4(C)[C@@H]3CC[C@]12C [Dydrogesterone]	active: 2.55
Cc1cccc(C)c1OCC(C)N (stereo not drawn) [Mexiletine hydrochloride]	inactive: 1.38
O=c1ccc2cc(O)c(O)cc2o1 [Esculetin]	inactive: 1.27
O=C(OCC(O)CO)c1ccccc1Nc1ccnc2cc(Cl)ccc12 (stereo not drawn) [Glafenine hydrochloride]	inactive: 1.94
CC(C(=O)O)c1ccc(-c2ccccc2)c(F)c1 (stereo not drawn) [Flurbiprofen]	inactive: 1.7
C[C@H]1O[C@@H](O[C@H]2[C@@H](O)C[C@H](O[C@H]3[C@@H](O)C[C@H](O[C@H]4CC[C@@]5(C)[C@H](CC[C@@H]6[C@@H]5C[C@@H](O)[C@]5(C)[C@@H](C7=CC(=O)OC7)CC[C@]65O)C4)O[C@@H]3C)O[C@@H]2C)C[C@H](O)[C@@H]1O [Digoxin]	inactive: 1

Arranged by count of non-hydrogen atoms (smallest number first): part of the list above.
SMILES	cell-surface Lgr5 expression
Oc1c(I)cc(Cl)c2cccnc12 [Clioquinol]	inactive: 1.93
COc1ccccc1OCC(O)CO (stereo not drawn) [Guaifenesin]	inactive: 1.85
O=C1OCCN1/N=C/c1ccc([N+](=O)[O-])o1 [Furazolidone]	inactive: 1.9
CC(C)NCC(O)c1ccc2ccccc2c1 (stereo not drawn) [Pronethalol hydrochloride]	inactive: 0.985
COc1ccc(OC)c(C(O)CNC(=O)CN)c1 (stereo not drawn) [Midodrine hydrochloride]	inactive: 1.37
COc1c2occc2c(OC)c2c(=O)cc(C)oc12 [Khellin]	inactive: 1.39
Cc1cc(CC(=O)O)n(C)c1C(=O)c1ccc(Cl)cc1 [Zomepirac sodium salt]	inactive: 2.05
CN(C(=O)C(Cl)Cl)c1ccc(OC(=O)c2ccco2)cc1 [Diloxanide furoate]	inactive: 2.31
c1ccc2c3c([nH]c2c1)C1C2CCC(C4CCCNC42)N1CC3 (stereo not drawn) [Nitrarine dihydrochloride]	inactive: 1.74
CC1Cc2ccccc2N1NC(=O)c1ccc(Cl)c(S(N)(=O)=O)c1 (stereo not drawn) [Indapamide]	inactive: 1.04
CCCNCC(O)COc1ccccc1C(=O)CCc1ccccc1 (stereo not drawn) [Propafenone hydrochloride]	inactive: 2
O=C(OCC(O)CO)c1ccccc1Nc1ccnc2cc(Cl)ccc12 (stereo not drawn) [Glafenine hydrochloride]	inactive: 1.94
CN1CCN(CCCN2c3ccccc3Sc3ccc(C(F)(F)F)cc32)CC1 [Trifluoperazine dihydrochloride]	inactive: 1.3
CO/N=C(\C(=O)N[C@@H]1C(=O)N2C(C(=O)O)=C(COC(N)=O)CS[C@H]12)c1ccco1 [Cefuroxime sodium salt]	inactive: 1.85
COc1ccc2c(c1OC)C(=O)O[C@@H]2[C@H]1c2c(cc3c(c2OC)OCO3)CCN1C [Noscapine]	inactive: 1.98
NC[C@@H]1O[C@H](O[C@H]2[C@@H](O)[C@H](O[C@@H]3[C@@H](O)[C@H](N)C[C@H](N)[C@H]3O[C@H]3O[C@H](CO)[C@@H](O)[C@H](O)[C@H]3N)O[C@@H]2CO)[C@H](N)[C@@H](O)[C@@H]1O [Paromomycin sulfate]	inactive: 1.87
CC[C@H](C)[C@H](N)C1=N[C@H](C(=O)N[C@@H](CC(C)C)C(=O)N[C@H](CCC(=O)O)C(=O)N[C@H](C(=O)N[C@H]2CCCCNC(=O)[C@H](CC(N)=O)NC(=O)[C@@H](CC(=O)O)NC(=O)[C@H](Cc3cnc[nH]3)NC(=O)[C@@H](Cc3ccccc3)NC(=O)[C@H]([C@@H](C)CC)NC(=O)[C@@H](CCCN)NC2=O)[C@@H](C)CC)CS1 [Bacitracin]	inactive: 1.37
